PubChem BioAssay AID1259308 | NCATS | 2017

Test: 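Genes whose loss raises luciferase production in HEK293 cells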 (primary screen)
Cells: human HEK293 embryonic kidney cells stably expressing firefly luciferase (HEK-CMV-Luc2-Hygro)
Reagents: single siRNA against human genes, 0.8 pmol siRNA per well
Time to read-out: 72 h
Read-out: 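Reporter luminescence and viable-cell signal on separate replicate plates, given as percent of non-targeting control and median/MAD z-scores, plus per-cell luciferase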
Scale: total luciferase, z-score and total luciferase, % of control: higher = more reporter protein produced; luciferase per cell, z-score: higher = more reporter output per viable cell; viable cells, % of control: higher = more viable cells
Rule for the call: 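Active when the median/MAD z-score for overall luciferase is greater than 3; a gene was taken forward for validation with new siRNAs if at least two of its three siRNAs passed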
Calls: active = raised luciferase; inactive = no rise
The whole screen tested about 59,000 reagents; this is a part drawn at random. Of all reagents, about 1,510 (2.6%) were called active. 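Calls use total luciferase alone and ignore viability, so some active siRNAs may act by altering cell number.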 Unmarked entries are inactive. The numbers tell different reagents against one gene apart.

| Gene | reagent no. | total luciferase, z-score | total luciferase, % of control | luciferase per cell, z-score | viable cells, % of control |
| --- | --- | --- | --- | --- | --- |
| KCP | 1 | 3.28 (active) | 147 | 2.1 | 94.7 |
| KCP | 2 | -0.687 | 68.2 | 0.589 | 65.3 |
| KCP | 3 | -0.54 | 71.1 | 1.21 | 57.8 |
| TIGD5 | 1 | -0.0949 | 80 | 0.00412 | 89.3 |
| TIGD5 | 2 | -0.407 | 73.8 | -0.809 | 102 |
| TIGD5 | 3 | 0.216 | 86.2 | 0.18 | 91.9 |
| RBM44 | 1 | -0.621 | 69.5 | -0.405 | 86.4 |
| RBM44 | 2 | -0.573 | 70.5 | -0.341 | 86.2 |
| RBM44 | 3 | -1.03 | 61.4 | -0.587 | 80.1 |
| DCAF8L2 | 1 | 0.412 | 90.1 | 0.256 | 94.1 |
| DCAF8L2 | 2 | 1.42 | 110 | 1.19 | 90 |
| DCAF8L2 | 3 | 0.398 | 89.8 | 0.992 | 77.3 |
| MXRA5 | 1 | -1.36 | 54.8 | -0.85 | 76.6 |
| MXRA5 | 2 | -0.828 | 65.4 | -0.28 | 78.7 |
| MXRA5 | 3 | -0.729 | 67.4 | -0.361 | 82.8 |
| RPL18 | 1 | -2.91 | 23.9 | -1.84 | 43.4 |
| RPL18 | 2 | -2.78 | 26.6 | -1.19 | 40.7 |
| RPL18 | 3 | -2.77 | 26.9 | -2.19 | 53.4 |
| TSPAN8 | 1 | -1.27 | 56.7 | -1.47 | 93.2 |
| TSPAN8 | 2 | -0.0623 | 80.6 | 0.342 | 82.4 |
| TSPAN8 | 3 | -0.647 | 69 | -0.524 | 88.5 |
| CCT5 | 1 | 1.58 | 113 | 1.31 | 89.7 |
| CCT5 | 2 | -0.557 | 70.8 | -0.328 | 86.3 |
| CCT5 | 3 | 0.86 | 99 | 0.388 | 99.9 |

3 of these entries in another layout.
Gene	reagent no.	total luciferase, z-score	total luciferase, % of control	luciferase per cell, z-score	viable cells, % of control
TSPAN8	3	-0.647	69	-0.524	88.5
CCT5	1	1.58	113	1.31	89.7
CCT5	2	-0.557	70.8	-0.328	86.3
